The target in this assay is HBV X protein (hepatitis B virus (in HepG2.2.15 cells)) (UniProt P03165). The assay is described as follows: co-IP; HepG2.2.15 lysate (20 mmol/L Tris-HCl pH 7.5, 150 mmol/L NaCl, 1 % NP-40, 0.1 % SDS, sodium deoxycholate, 2 mmol/L EDTA), pre-cleared; immunoprecipitated with mouse anti-HBx monoclonal antibody and protein A + G Sepharose beads at 4 °C overnight; Western blot for TLR4; isotype IgG as control.

By UniProt entry, the sequences of proteins in these tests, tags left out. Residues count along the entry.
UniProt P03165: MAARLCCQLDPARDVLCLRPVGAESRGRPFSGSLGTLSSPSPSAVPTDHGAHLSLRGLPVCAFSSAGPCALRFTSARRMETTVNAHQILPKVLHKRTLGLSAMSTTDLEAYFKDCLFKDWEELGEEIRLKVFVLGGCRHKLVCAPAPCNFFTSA
UniProt O00206, residues 24-839: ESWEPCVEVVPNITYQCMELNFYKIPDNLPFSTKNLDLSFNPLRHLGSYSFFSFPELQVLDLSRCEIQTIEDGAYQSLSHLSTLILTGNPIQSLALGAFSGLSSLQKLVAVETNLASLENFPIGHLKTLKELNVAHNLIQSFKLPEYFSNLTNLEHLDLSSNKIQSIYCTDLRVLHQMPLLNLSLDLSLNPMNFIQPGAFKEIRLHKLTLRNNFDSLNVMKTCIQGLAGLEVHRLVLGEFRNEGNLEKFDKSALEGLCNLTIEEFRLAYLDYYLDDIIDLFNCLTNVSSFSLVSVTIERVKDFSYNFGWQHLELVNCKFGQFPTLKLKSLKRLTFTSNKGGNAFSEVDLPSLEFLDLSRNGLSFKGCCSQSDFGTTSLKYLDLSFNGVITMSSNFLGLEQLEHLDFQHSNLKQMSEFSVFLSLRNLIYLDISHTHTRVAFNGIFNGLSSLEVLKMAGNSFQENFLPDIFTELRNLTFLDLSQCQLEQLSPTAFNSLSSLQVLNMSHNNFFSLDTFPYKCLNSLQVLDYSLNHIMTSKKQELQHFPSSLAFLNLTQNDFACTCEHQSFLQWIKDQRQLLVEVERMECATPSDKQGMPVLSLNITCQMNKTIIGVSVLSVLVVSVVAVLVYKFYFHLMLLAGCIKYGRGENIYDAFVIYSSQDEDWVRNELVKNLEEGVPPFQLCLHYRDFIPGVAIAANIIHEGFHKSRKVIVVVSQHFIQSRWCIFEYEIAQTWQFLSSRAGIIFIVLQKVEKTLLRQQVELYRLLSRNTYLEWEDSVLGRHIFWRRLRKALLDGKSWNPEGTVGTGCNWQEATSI

No constants are given. Whether binding was seen depends on the method and setting. Binding seen in cells or lysates may run through a third protein. Some binding calls cover weakened binding; strength is not graded here.

Take “toll-like receptor 4 (from UniProt O00206 24-839)”: the binding result was “binds”.

The values above are taken from PMC4627624.
